In PMC6925144, “A prospective compound screening contest identified broader inhibitors for Sirtuin 1” (Scientific Reports, 2019):
In all, about 3,200 compounds were measured (“TSA(without NAD+) / Primary screening (TSA) / delta Tm (K)”: median about -0.07, highest 2% from about 0.37 on). The list shows a part of the results.

Chains of the proteins cited; added tags and fusions are not shown. Residues count along the entry.
UniProt Q96EB6, 2-747 limits assumed: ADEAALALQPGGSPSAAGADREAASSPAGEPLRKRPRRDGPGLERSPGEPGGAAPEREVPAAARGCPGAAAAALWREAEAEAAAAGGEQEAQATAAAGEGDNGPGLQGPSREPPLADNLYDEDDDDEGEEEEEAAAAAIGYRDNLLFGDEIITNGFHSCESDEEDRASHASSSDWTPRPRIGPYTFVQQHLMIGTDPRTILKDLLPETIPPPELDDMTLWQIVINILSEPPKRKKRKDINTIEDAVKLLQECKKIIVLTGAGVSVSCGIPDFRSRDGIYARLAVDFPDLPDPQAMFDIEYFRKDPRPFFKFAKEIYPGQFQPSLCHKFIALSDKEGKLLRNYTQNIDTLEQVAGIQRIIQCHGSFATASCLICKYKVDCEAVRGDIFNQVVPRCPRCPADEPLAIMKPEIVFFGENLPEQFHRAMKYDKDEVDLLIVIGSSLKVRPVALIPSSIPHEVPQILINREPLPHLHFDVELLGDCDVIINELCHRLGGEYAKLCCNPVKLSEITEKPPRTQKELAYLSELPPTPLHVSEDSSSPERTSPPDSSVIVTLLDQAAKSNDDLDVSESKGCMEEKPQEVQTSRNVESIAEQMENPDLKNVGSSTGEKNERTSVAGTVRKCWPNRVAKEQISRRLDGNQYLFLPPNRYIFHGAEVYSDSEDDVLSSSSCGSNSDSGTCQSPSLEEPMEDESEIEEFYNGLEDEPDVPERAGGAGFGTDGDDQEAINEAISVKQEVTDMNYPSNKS

Each compound was assayed against NAD-dependent deacetylase Sirtuin 1 (human, UniProt Q96EB6) (assay: primary screen, delta tm). Conditions: 10 µM.
Design: single well (n = 1)
Method: A total of 3,192 compounds extracted from the proposed lists were first screened by thermal shift assay (TSA), which determined a melting temperature shift (ΔTm) of Sirtuin 1 upon the addition of a test compound at a concentration of 10 µM (n = 1) with primary hit criteria of ΔTm > 0.45 K or ΔTm < −1.5 K. Primary hits (48 compounds) were retested in the same assay at three concentrations (5, 10, 20 µM, n = 4) for hit confirmation and for dose-dependency check. Secondary hits (41 compounds) were checked their selectivity for Sirtuin 1 based on counterscreening on unrelated protein targets (bovine carbonic anhydrase (CA) and recombinant SH2 domain of hABL1 kinase (ABL1)) at three different concentrations (5, 10, 20 µM, n = 4), which yielded 38 hit compounds, hereafter referred to as TSA hits. The TSA screening above was conducted in the absence of NAD+.

Question: Cc1ccc(-c2noc(C(C)N3CCN(c4nc(C(F)(F)F)nc5ccccc45)CC3)n2)cc1 (stereo not drawn) was tested. Which “TSA(without NAD+) / Primary screening (TSA) / delta Tm (K)” value did it give?
Answer: Its value is 0.02 K.

Question: Which “TSA(without NAD+) / Primary screening (TSA) / delta Tm (K)” value does the source give for O=C1CN(c2ncc(Br)cn2)C2CCCCC2N1 (stereo not drawn) here?
Answer: Its value is -0.22 K.

Question: For O=C(CSC1CCS(=O)(=O)C1)Nc1nnc(SCc2c(Cl)cccc2Cl)s1 (stereo not drawn), which “TSA(without NAD+) / Primary screening (TSA) / delta Tm (K)” value is on record?
Answer: Its value is -0.02 K.

Question: For CCC(C)C(C)N (stereo not drawn), which “TSA(without NAD+) / Primary screening (TSA) / delta Tm (K)” value is on record?
Answer: Its value is -0.12 K.

Question: For Cn1ccc(NC(=O)CSc2ccc3c4c(cccc24)C(=O)c2ccccc2-3)n1, which “TSA(without NAD+) / Primary screening (TSA) / delta Tm (K)” value is on record?
Answer: The value was 0.18 K.

Question: Which “TSA(without NAD+) / Primary screening (TSA) / delta Tm (K)” value does the source give for Cc1cc(C(=O)NCc2nnc3ccccn23)c(C)n1-c1ccccc1 here?
Answer: Its value is -0.27 K.

Question: For CCOCc1cn(CC(=O)c2ccc(OC)cc2)c(C)nc1=N, which “TSA(without NAD+) / Primary screening (TSA) / delta Tm (K)” value is on record?
Answer: Its value is 0.08 K.

Question: How did the “TSA(without NAD+) / Primary screening (TSA) / delta Tm (K)” value turn out when CCOc1ccc(Oc2ccc(NS(=O)(=O)c3cc(C(=O)O)ccc3Cl)cc2)cc1 was run?
Answer: Its value is 0.08 K.

Question: With NC(=O)C1CCN(C(=O)c2c[nH]c3ccc(Br)cc23)CC1 as the compound, how does the “TSA(without NAD+) / Primary screening (TSA) / delta Tm (K)” value read?
Answer: Its value is 0.02 K.

Question: With O=C(Cc1cccc2ccccc12)Nc1ccccc1Cc1ccccc1 as the compound, how does the “TSA(without NAD+) / Primary screening (TSA) / delta Tm (K)” value read?
Answer: Its value is -0.04 K.

Question: CCONC(=O)c1cccc(I)c1 was tested. Which “TSA(without NAD+) / Primary screening (TSA) / delta Tm (K)” value did it give?
Answer: Its value is 0.08 K.

Question: With COc1ccc(CCn2c(C)cc(C(=O)COC(=O)C34CC5CC(CC(O)(C5)C3)C4)c2C)cc1 as the compound, how does the “TSA(without NAD+) / Primary screening (TSA) / delta Tm (K)” value read?
Answer: Its value is -0.23 K.

Question: CCCOc1ccc(C(=O)C2=C(O)C(=O)N(CCCN3CCOCC3)C2c2ccc(C)o2)cc1 (stereo not drawn) was tested. Which “TSA(without NAD+) / Primary screening (TSA) / delta Tm (K)” value did it give?
Answer: The value was 0.17 K.

Question: With CCCCCOc1ccc(C(=O)CCC(=O)OCC(=O)Nc2cccc(S(=O)(=O)/N=C3/CCCCCN3)c2)cc1 as the compound, how does the “TSA(without NAD+) / Primary screening (TSA) / delta Tm (K)” value read?
Answer: The value was -0.03 K.

Question: CCCNC(=O)c1ccc2[nH]c(C)c(C)c2c1 was tested. Which “TSA(without NAD+) / Primary screening (TSA) / delta Tm (K)” value did it give?
Answer: Its value is -0.08 K.

Question: Which “TSA(without NAD+) / Primary screening (TSA) / delta Tm (K)” value does the source give for COc1ccc(CCNCc2ccc(OCc3ccccc3)cc2)cc1 here?
Answer: Its value is -0.03 K.

Question: For Cc1ccc(-c2nnc(SCC(=O)NC(C)C(C)C)n2N)cc1 (stereo not drawn), which “TSA(without NAD+) / Primary screening (TSA) / delta Tm (K)” value is on record?
Answer: Its value is 0.05 K.

Question: For CC(C)(N)CCCN, which “TSA(without NAD+) / Primary screening (TSA) / delta Tm (K)” value is on record?
Answer: Its value is -0.22 K.

Question: With CN(C)C(CNC(=O)C1CCCc2ccccc21)c1ccccc1 (stereo not drawn) as the compound, how does the “TSA(without NAD+) / Primary screening (TSA) / delta Tm (K)” value read?
Answer: The value was -0.13 K.

Question: CN(c1ccc(C(N)=O)cc1)S(=O)(=O)c1ccc(F)c(C(F)(F)F)c1 was tested. Which “TSA(without NAD+) / Primary screening (TSA) / delta Tm (K)” value did it give?
Answer: The value was -0.24 K.

Question: For O=c1[nH]c(=O)c2cc(S(=O)(=O)N3CCc4ccccc4C3Cc3ccccc3)ccc2[nH]1 (stereo not drawn), which “TSA(without NAD+) / Primary screening (TSA) / delta Tm (K)” value is on record?
Answer: The value was -0.17 K.

Question: For C=CCOc1cccc(C2C(C(=O)c3cccs3)=C(O)C(=O)N2CCCN2CCOCC2)c1 (stereo not drawn), which “TSA(without NAD+) / Primary screening (TSA) / delta Tm (K)” value is on record?
Answer: The value was 0.06 K.

Question: Cc1cccc(NC(=O)CCNC(=O)C2=CCCCCC2)n1 was tested. Which “TSA(without NAD+) / Primary screening (TSA) / delta Tm (K)” value did it give?
Answer: Its value is -0.08 K.

Question: With Cn1cc(S(=O)(=O)N2CCN(C(=O)CCNC(=O)c3ccsc3)CC2)cc1C(N)=O as the compound, how does the “TSA(without NAD+) / Primary screening (TSA) / delta Tm (K)” value read?
Answer: Its value is -0.07 K.

Question: CN(C)C(=O)c1ccc(F)cc1Br was tested. Which “TSA(without NAD+) / Primary screening (TSA) / delta Tm (K)” value did it give?
Answer: The value was -0.23 K.

Question: How did the “TSA(without NAD+) / Primary screening (TSA) / delta Tm (K)” value turn out when Cc1cocc1CCCO was run?
Answer: The value was -0.24 K.

Question: How did the “TSA(without NAD+) / Primary screening (TSA) / delta Tm (K)” value turn out when O=C(Nc1ccc(F)cc1F)C(F)C(F)(F)F (stereo not drawn) was run?
Answer: Its value is -0.14 K.
